Source: patent EP2143422A1, “Ophthalmic compositions containing gemifloxacin for the treatment of ocular infections” (S.I.F.I - SOCIETÀ INDUSTRIA FARMACEUTICA ITALIANA - S.P.A., priority 2008, dated 2010)
For part of these data: The name of at least one read-out is uncertain. For part of these data: At least one structure is not confirmed: it was looked up by name or label, or the drawing left a doubt.

How the values were obtained:
[1] = In vivo pharmacokinetic test: ocular tissue distribution after single ophthalmic administration; design: species or system pigmented rabbits; details: single ophthalmic administration (30 µl) of 0.3% solution
Method: The penetration capacity of gemifloxacin was determined in the cornea, conjunctiva, aqueous humour and iris-ciliary body after single ophthalmic administration (30 µl) of the solution at 0.3% in both eyes of pigmented rabbits. The tissues were collected at the following times: 15 minutes, 30 minutes, 1, 2, 4, 8, 12, 24 and 48 hours. Quantitative analysis of the samples was carried out by a LC/MS/MS method after suitable extraction of the active principle from the tissue and expressed as µg/g or µg/ml of tissue.

[2] = test system: ocular St. aureus isolate (7786); assay: In vivo effectiveness: bacterial load (CFU/g) in cornea, bacterial keratitis model; design: species or system New Zealand albino rabbits; details: second experiment; 0.3% aqueous solution, every hour, 7 administrations, one day; compared to control
Method: The effectiveness and accumulation of gemifloxacin in the cornea and aqueous humour were determined in vivo after administration of the 0.3% gemifloxacin compositions (emulsion and aqueous solution) and compared to 0.3% norfloxacin and ofloxacin in aqueous solution, in New Zealand albino rabbits having been induced with bacterial keratitis (Survey of Ophthalmology, vol. 50, suppl. Nov. 2005, p.S32-S48) by intrastromal injection of an inoculum of an ocular St. aureus isolate (7786).
Male New Zealand albino rabbits were used (Harlan Italia) into which the keratitis had been induced - following anaesthesia with ketamine (37.5 mg/kg) and xylazine (10 mg/kg) by intramuscular means and novesine by topical means (2 drops per eye) - by intrasomal injection of a suspension of the ocular St. aureus isolate 7786 in PBS (Phosphate Buffered Solution). The injection was carried out using an insulin syringe with a 30-gauge needle in each cornea of each rabbit.
In the first experiment the following treatments were compared: 0.15% aqueous gemifloxacin solution, 0.3% aqueous gemifloxacin solution, 0.3% aqueous norfloxacin solution and physiological solution (0.9% NaCl) as control. […]
The bacterial load of each sample was determined by counting CFUs (Colony Forming Units) on a filter and plate, to be reported as CFU/g of tissue.

For `CO/N=C1\CN(c2nc3c(cc2F)c(=O)c(C(=O)O)cn3C2CC2)CC1CN` (racemic) [Gemifloxacin, (R,S)-7-(3-aminomethyl-4-methoxyiminopyrrolidin-1yl)-1-cyclopropyl-6-fluoro-4-oxo-1,4-dihydro-1,8-naphthyridin-3-carboxylic acid], which Cmax ([1]; aqueous humour) is on record?
Its Cmax is 0.026 µg/g or µg/ml.

And the Cmax ([1]; iris-ciliary body)?
The Cmax was 0.460 µg/g or µg/ml.

With `CC1COc2c(N3CCN(C)CC3)c(F)cc3c(=O)c(C(=O)O)cn1c23` (stereo not drawn) [Ofloxacin] as the molecule, how does the “reduction in bacterial load in the cornea” value [2] read?
The value was “statistically significantly reduce”.
